# Measured values as given in PubChem BioAssay (NCATS).
# This list was built around the results that the source calls inconclusive (neither active nor inactive); the mix of calls is not that of the screen. For some of these results: Where the call is inconclusive, the potency comes from a doubtful curve fit. Active and inactive are the calls of the source. Calls come from the whole dose curve; as a rule, active = well fitted curve in the direction sought with a large enough effect; inconclusive = small, poorly fitted or top-dose-only effect, or another doubt; inactive = no such curve, though single readings can be large; an effect the other way counts as inactive or inconclusive.
# Legend:
# [1] = Quantitative High-Throughput drug screen in 47 multiple myeloma cell lines against the NCATS MIPE library collection: KMS20_JCRB cell viability assay (AID 1918973); details: CellTiter-Glo ATP, 48 h; viability (% of DMSO): at 45.8 µM (top of the series); note: nearly all actives have a fitted effect of over 45% in size; note: potency is the fitted concentration of half-maximal effect
# Procedure, shortened: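 Myeloma cells (500 per well) were exposed to MIPE 4.0 compounds by pin transfer and incubated 48 hours at 37C, 5% CO2. Viability was read as ATP by CellTiter-Glo luminescence, normalised to DMSO (100%) and media-only (0%) wells.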
# [2] = Quantitative High-Throughput drug screen in 47 multiple myeloma cell lines against the NCATS MIPE library collection: KMS26_JCRB cell viability assay (AID 1918975); details: KMS26 myeloma cells viability, CellTiter-Glo ATP, 48 h; viability (% of DMSO): at 45.8 µM (top of the series); note: nearly all actives have a fitted effect of over 45% in size; note: potency is the fitted concentration of half-maximal effect
# Procedure, shortened: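 Myeloma cell lines, 500 cells per well, exposed to MIPE 4.0 library compounds for 48 h at 37C, 5% CO2. Viability from ATP by CellTiter-Glo luminescence; normalised to DMSO (100%) and media-only (0%) wells.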
# [3] = Quantitative High-Throughput drug screen in 47 multiple myeloma cell lines against the NCATS MIPE library collection: MMM1_PLB cell viability assay (AID 1918976); note: potency is the fitted concentration of half-maximal effect; nearly all actives have a fitted effect of over 35% in size
# Procedure, shortened: (§1)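 ATP-based luminescence (CellTiter-Glo, 5 min RT incubation) quantified surviving cells following two days' treatment with MIPE 4.0 agents at 37 °C, 5% CO2.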
# [4] = Quantitative High-Throughput drug screen in 47 multiple myeloma cell lines against the NCATS MIPE library collection: MOLP8_DSMZ cell viability assay (AID 1918977); details: MOLP8 myeloma viability, CellTiter-Glo ATP luminescence, 48 h; viability (% of control): at 45.8 µM (top of the series); note: nearly all actives have a fitted effect of over 45% in size; note: potency is the fitted concentration of half-maximal effect
# Procedure, shortened: as §1
# [5] = Quantitative High-Throughput drug screen in 47 multiple myeloma cell lines against the NCATS MIPE library collection: MM1S_ATCC cell viability assay (AID 1918980); note: nearly all actives have a fitted effect of over 45% in size; note: potency is the fitted concentration of half-maximal effect
# Procedure, shortened: as §1
# [6] = Quantitative High-Throughput drug screen in 47 multiple myeloma cell lines against the NCATS MIPE library collection: MM1R_ATCC cell viability assay (AID 1918981); note: nearly all actives have a fitted effect of over 35% in size; note: potency is the fitted concentration of half-maximal effect
# Procedure, shortened: as §1
# [7] = Quantitative High-Throughput drug screen in 47 multiple myeloma cell lines against the NCATS MIPE library collection: L363_DSMZ cell viability assay (AID 1918984); details: L363 myeloma viability, CellTiter-Glo ATP luminescence, 48 h; viability (% of control): at 45.8 µM (top of the series); note: nearly all actives have a fitted effect of over 40% in size; note: potency is the fitted concentration of half-maximal effect
# Procedure, shortened: as §1
# [8] = Quantitative High-Throughput drug screen in 47 multiple myeloma cell lines against the NCATS MIPE library collection: KMS34_JCRB cell viability assay (AID 1918985); details: KMS34 myeloma viability, CellTiter-Glo ATP luminescence, 48 h; viability, percent of control: at 45.8 µM (top of the series); note: nearly all actives have a fitted effect of over 40% in size; note: potency is the fitted concentration of half-maximal effect
# Procedure, shortened: as §1
# [9] = Quantitative High-Throughput drug screen in 47 multiple myeloma cell lines against the NCATS MIPE library collection: OCIMY7_PLB cell viability assay (AID 1918987); details: OCI-MY7 myeloma viability, CellTiter-Glo ATP, 48 h; viability (% of DMSO): at 45.8 µM (top of the series); note: nearly all actives have a fitted effect of over 65% in size; note: potency is the fitted concentration of half-maximal effect
# Procedure, shortened: as §1
# [10] = Quantitative High-Throughput drug screen in 47 multiple myeloma cell lines against the NCATS MIPE library collection: OCIMY5_PLB cell viability assay (AID 1918988); details: OCI-MY5 myeloma viability, ATP luminescence, 48 h; viability, % of control: at 45.8 µM (top of the series); note: nearly all actives have a fitted effect of over 65% in size; note: potency is the fitted concentration of half-maximal effect;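 for viability, % of control: 100% = DMSO-treated wells and 0% = wells with media alone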
# Procedure, shortened: as §1
# [11] = Quantitative High-Throughput drug screen in 47 multiple myeloma cell lines against the NCATS MIPE library collection: OPM1_PLB cell viability assay (AID 1918989); note: nearly all actives have a fitted effect of over 40% in size
# Procedure, shortened: as §1
# [12] = Quantitative High-Throughput drug screen in 47 multiple myeloma cell lines against the NCATS MIPE library collection: U266_ATCC cell viability assay (AID 1919864); details: U266 myeloma viability, CellTiter-Glo ATP luminescence, 48 h; viability (% of DMSO control): at 45.8 µM (top of the series); note: nearly all actives have a fitted effect of over 35% in size; note: potency is the fitted concentration of half-maximal effect
# Procedure, shortened: as §1
# [13] = Quantitative High-Throughput drug screen in 47 multiple myeloma cell lines against the NCATS MIPE library collection: XG6_PLB cell viability assay (AID 1919865); details: XG6 myeloma viability, CellTiter-Glo ATP luminescence, 48 h; viability (% of control): at 45.8 µM (top of the series); note: nearly all actives have a fitted effect of over 40% in size; note: potency is the fitted concentration of half-maximal effect
# Procedure, shortened: as §1
# [14] = Quantitative High-Throughput drug screen in 47 multiple myeloma cell lines against the NCATS MIPE library collection: XG1_PLB cell viability assay (AID 1919866); details: CellTiter-Glo ATP, 48 h; viability: at 45.8 µM (top of the series); note: nearly all actives have a fitted effect of over 35% in size; note: potency is the fitted concentration of half-maximal effect
# Procedure, shortened: as §1
# [15] = Quantitative High-Throughput drug screen in 47 multiple myeloma cell lines against the NCATS MIPE library collection: LP1_DSMZ cell viability assay (AID 1918982); details: LP1 myeloma viability, CellTiter-Glo ATP luminescence, 48 h; viability (% of control): at 45.8 µM (top of the series); note: nearly all actives have a fitted effect of over 35% in size; note: potency is the fitted concentration of half-maximal effect
# Procedure, shortened: as §1
# [16] = Quantitative High-Throughput drug screen in 47 multiple myeloma cell lines against the NCATS MIPE library collection: KMS28PE_JCRB cell viability assay (AID 1918983); note: nearly all actives have a fitted effect of over 35% in size; note: potency is the fitted concentration of half-maximal effect
# Procedure, shortened: as §1
# [17] = Quantitative High-Throughput drug screen in 47 multiple myeloma cell lines against the NCATS MIPE library collection: SKMM1_PLB cell viability assay (AID 1919863); details: SKMM1 myeloma viability, CellTiter-Glo ATP, 48 h; viability: hits give low values; note: nearly all actives have a fitted effect of over 35% in size; note: potency is the fitted concentration of half-maximal effect
# Procedure, shortened: as §1
# [18] = Quantitative High-Throughput drug screen in 47 multiple myeloma cell lines against the NCATS MIPE library collection: OCIMY1_PLB cell viability assay (AID 1918979); details: OCI-MY1 myeloma viability, CellTiter-Glo ATP, 48 h; viability: at 45.8 µM (top of the series) unless noted; note: nearly all actives have a fitted effect of over 35% in size; note: potency is the fitted concentration of half-maximal effect
# Procedure, shortened: as §1
# [19] = Quantitative High-Throughput drug screen in 47 multiple myeloma cell lines against the NCATS MIPE library collection: NCIH929_DSMZ cell viability assay (AID 1918978)
# Procedure, shortened: as §1
smiles,measurement,setting,value
CC(C)(C)[C@H](NC(=O)c1ccc(N)c(Cl)c1)C(=O)N1CCC[C@@H]1C(=O)N[C@H](C#N)CC(=O)O,Potency,[1],"inconclusive: 0.0187 µM [rising, full curve, poor fit]"
same,viability (% of DMSO),[2],inactive: 125% [at 3.51 µM]
same,Potency,[3],"inconclusive: 1.2 nM [rising, full curve]"
same,viability (% of control),[4],inactive: 110% [at 3.51 µM]
same,viability (% of control),[5],inactive: 120% [at 3.51 µM]
same,viability (% of control),[6],inactive: 128% [at 3.51 µM]
same,viability (% of control),[7],inactive: 111% [at 3.51 µM]
same,"viability, percent of control",[8],inactive: 103% [at 3.51 µM]
same,Potency,[9],"inconclusive: 1.05 µM [cytotoxic, full curve, poor fit]"
same,"viability, % of control",[10],inactive: 135% [at 3.51 µM]
same,viability (% of control),[11],inactive: 141% [at 3.51 µM]
same,viability (% of DMSO control),[12],inactive: 129% [at 3.51 µM]
same,viability (% of control),[13],inactive: 104% [at 3.51 µM]
same,Potency,[14],"inconclusive: 834 nM [cytotoxic, partial curve, poor fit]"
CCN1CCN(c2ccc(Nc3cc(N(C)C(=O)Nc4c(Cl)c(OC)cc(OC)c4Cl)ncn3)cc2)CC1,Potency,[1],active: 2.09 µM
same,Potency,[2],"inconclusive: 37.2 µM [cytotoxic, single point]"
same,Potency,[3],"inconclusive: 2.1 nM [rising, full curve, poor fit]"
same,Potency,[4],"inconclusive: 16.6 µM [cytotoxic, partial curve]"
same,Potency,[5],"inconclusive: 33.2 µM [cytotoxic, partial curve, poor fit]"
same,Potency,[6],"inconclusive: 33.2 µM [cytotoxic, single point]"
same,Potency,[15],"inconclusive: 6.62 µM [cytotoxic, full curve, poor fit]"
same,Potency,[16],"inconclusive: 18.7 µM [cytotoxic, partial curve, poor fit]"
same,Potency,[7],"inconclusive: 1.9 nM [rising, full curve, poor fit]"
same,Potency,[8],"inconclusive: 1.9 nM [rising, full curve, poor fit]"
same,Potency,[9],"inconclusive: 3.72 µM [rising, full curve, poor fit]"
same,Potency,[17],"inconclusive: 37.2 µM [cytotoxic, single point]"
same,Potency,[12],inactive
same,Potency,[13],active: 6.62 µM
CN1C(C(=O)Nc2ccccn2)=C(O)c2sccc2S1(=O)=O,Potency,[1],"inconclusive: 9.35 µM [cytotoxic, single point]"
same,Potency,[2],inactive
same,Potency,[3],active: 2350 nM
same,Potency,[4],"inconclusive: 5.9 µM [cytotoxic, partial curve, poor fit]"
same,Potency,[18],inactive
same,Potency,[5],"inconclusive: 11.8 µM [cytotoxic, partial curve, poor fit]"
same,Potency,[6],inactive
same,Potency,[15],inactive
same,Potency,[16],"inconclusive: 3.72 µM [cytotoxic, partial curve, poor fit]"
same,Potency,[7],"inconclusive: 13.2 nM [cytotoxic, full curve, poor fit]"
same,Potency,[8],inactive
same,Potency,[9],"inconclusive: 0.0235 µM [rising, full curve, poor fit]"
same,Potency,[17],"inconclusive: 14.8 µM [cytotoxic, partial curve, poor fit]"
same,Potency,[12],inactive
same,Potency,[14],inactive
CON=C(C(=O)N[C@@H]1C(=O)N2C(C(=O)O)=C(CSC(=O)c3ccco3)CS[C@H]12)c1csc(N)n1,Potency,[1],inactive
same,Potency,[2],inactive
same,Potency,[3],"inconclusive: 3.3 nM [rising, full curve, poor fit]"
same,Potency,[4],inconclusive: 0.001 µM
same,Potency,[19],"inconclusive: 29.6 µM [cytotoxic, single point]"
same,Potency,[18],inactive
same,Potency,[5],"inconclusive: 33.2 µM [cytotoxic, single point]"
same,Potency,[6],"inconclusive: 18.7 µM [cytotoxic, partial curve, poor fit]"
same,Potency,[7],"inconclusive: 1.9 nM [rising, full curve, poor fit]"
same,Potency,[8],"inconclusive: 1.2 nM [cytotoxic, full curve, poor fit]"
same,Potency,[9],inactive
same,Potency,[10],"inconclusive: 1.2 nM [cytotoxic, full curve, poor fit]"
same,viability,[17],inactive: 134%
same,Potency,[12],"inconclusive: 37.2 µM [cytotoxic, single point]"
same,Potency,[13],"inconclusive: 20.9 µM [cytotoxic, partial curve]"
COc1ccc(CC2c3cc(OC)c(OC)cc3CC[N+]2(C)CCC(=O)OCCCCCOC(=O)CC[N+]2(C)CCc3cc(OC)c(OC)cc3C2Cc2ccc(OC)c(OC)c2)cc1OC (stereo not drawn),Potency,[1],"inconclusive: 5.2 µM [cytotoxic, single point]"
same,viability (% of DMSO),[2],inactive: 102% [at 5.15 µM]
same,Potency,[3],"inconclusive: 6.5 nM [rising, full curve, poor fit]"
same,Potency,[4],inconclusive: 0.0002 µM
same,Potency,[19],"inconclusive: 5.2 µM [cytotoxic, single point]"
same,Potency,[18],inconclusive: 0.2 nM
same,Potency,[5],"inconclusive: 0.0021 µM [rising, full curve, poor fit]"
same,Potency,[6],inconclusive: 0.0003 µM
same,"viability, % of DMSO control",[16],inactive: 105% [at 5.15 µM]
same,Potency,[7],inconclusive: 0.7 nM
same,Potency,[8],"inconclusive: 1.6 nM [rising, full curve, poor fit]"
same,Potency,[9],active: 4.13 µM
same,Potency,[10],"inconclusive: 583 nM [rising, partial curve, poor fit]"
same,Potency,[17],"inconclusive: 0.0023 µM [rising, full curve, poor fit]"
same,Potency,[13],"inconclusive: 5.2 µM [cytotoxic, single point]"

# Rewritten with bars between the fields: entries from further up
smiles | measurement | setting | value
CC(C)(C)[C@H](NC(=O)c1ccc(N)c(Cl)c1)C(=O)N1CCC[C@@H]1C(=O)N[C@H](C#N)CC(=O)O | Potency | [3] | inconclusive: 1.2 nM [rising, full curve]
CCN1CCN(c2ccc(Nc3cc(N(C)C(=O)Nc4c(Cl)c(OC)cc(OC)c4Cl)ncn3)cc2)CC1 | Potency | [8] | inconclusive: 1.9 nM [rising, full curve, poor fit]
COc1ccc(CC2c3cc(OC)c(OC)cc3CC[N+]2(C)CCC(=O)OCCCCCOC(=O)CC[N+]2(C)CCc3cc(OC)c(OC)cc3C2Cc2ccc(OC)c(OC)c2)cc1OC (stereo not drawn) | Potency | [1] | inconclusive: 5.2 µM [cytotoxic, single point]
same | Potency | [6] | inconclusive: 0.0003 µM
